Data on four substances can be found in article PMC5634629.

Amino acid sequences for entries named in this document (tags omitted).
UniProt O14649: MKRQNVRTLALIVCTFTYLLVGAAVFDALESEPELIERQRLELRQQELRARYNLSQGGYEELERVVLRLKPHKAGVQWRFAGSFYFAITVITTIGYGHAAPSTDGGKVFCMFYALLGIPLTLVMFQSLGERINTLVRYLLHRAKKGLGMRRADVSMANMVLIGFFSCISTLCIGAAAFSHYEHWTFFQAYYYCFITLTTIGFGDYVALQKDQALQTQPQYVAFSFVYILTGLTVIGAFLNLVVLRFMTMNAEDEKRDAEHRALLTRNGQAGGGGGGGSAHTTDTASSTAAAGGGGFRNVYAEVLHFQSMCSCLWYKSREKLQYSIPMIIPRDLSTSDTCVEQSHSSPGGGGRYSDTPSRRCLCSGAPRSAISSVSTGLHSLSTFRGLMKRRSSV
UniProt Q9H427: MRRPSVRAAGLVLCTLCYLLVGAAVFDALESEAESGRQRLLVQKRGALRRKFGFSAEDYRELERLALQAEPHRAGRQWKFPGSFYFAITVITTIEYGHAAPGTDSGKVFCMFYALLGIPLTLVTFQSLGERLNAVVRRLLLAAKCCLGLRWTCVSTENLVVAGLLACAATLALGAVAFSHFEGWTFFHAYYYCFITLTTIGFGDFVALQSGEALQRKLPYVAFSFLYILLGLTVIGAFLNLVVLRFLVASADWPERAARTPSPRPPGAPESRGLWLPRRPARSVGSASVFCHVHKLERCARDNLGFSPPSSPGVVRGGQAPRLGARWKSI

No constants are given. Whether binding was seen depends on the method and setting. In cells and extracts the contact can be indirect. Some results given as binding are weak or reduced against the parent protein; the word gives no strength. For some of these results: Tags and fused reporters may be left off the sequences shown.

The target of one assay is TASK1-YFP (human) (UniProt O14649). The experiment in a line: FRET or BRET; acceptor photobleaching FRET (CFP donor, YFP acceptor) in HEK293 cells, confocal microscope; cDNA ratio CFP:YFP 1:1; E_FRET = percent increase in CFP emission after YFP photobleaching. (In general: Bioluminescence resonance energy transfer reports proximity on the nanometre scale.)
Another assay deals with T1, GFP-TALK2 (human) (UniProt Q96T54).
T1 sequence: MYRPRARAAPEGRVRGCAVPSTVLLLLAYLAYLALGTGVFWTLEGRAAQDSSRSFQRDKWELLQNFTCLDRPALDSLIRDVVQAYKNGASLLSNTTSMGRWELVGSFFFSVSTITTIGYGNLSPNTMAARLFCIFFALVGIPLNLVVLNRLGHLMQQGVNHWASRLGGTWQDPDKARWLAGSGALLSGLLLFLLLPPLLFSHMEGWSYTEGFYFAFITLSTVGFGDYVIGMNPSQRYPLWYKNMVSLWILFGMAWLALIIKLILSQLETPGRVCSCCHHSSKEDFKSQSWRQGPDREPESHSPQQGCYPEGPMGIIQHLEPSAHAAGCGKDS
As to the kind of experiment: co-IP; HEK293 lysates (IP Lysis/Wash Buffer, 1% NP-40, 0.15 M NaCl, pH 7.4) precipitated with anti-GFP antibody on resin, overnight at 4°C; blotted with anti-TASK1 antibody.

Another assay deals with T2, VN-TALK2 (human) (UniProt Q96T54).
T2 sequence: T1 sequence
As to the kind of experiment: split reporter; BiFC in living HEK293 cells co-expressing channels fused to VN173 and VC155 of Venus; Venus fluorescence imaged.

For a further assay, the target named is T3, TALK2-VC (human) (UniProt Q96T54).
T3 sequence: T1 sequence
Described as above.

With CFP-TASK5 (from UniProt Q9H427 1-330), the binding result with TASK1-YFP (human) is “no binding”.

“TASK1 (without any tag) (from UniProt O14649 1-394)”: the binding entry in the assay with GFP-TALK2 (human) is “binds”.

In the case of TASK1-VC (from UniProt O14649 1-394), in the assay with VN-TALK2 (human), the binding result was “binds”.

Consider VN-TASK1 (from UniProt O14649 1-394), for which the binding result in the assay with TALK2-VC (human) is reported as “binds”.
